Data published in patent US20170189504A1, “NOVEL PEPTIDES AND COMBINATION OF PEPTIDES FOR USE IN IMMUNOTHERAPY AGAINST VARIOUS CANCERS” (immatics biotechnologies GmbH, priority 2015, published 2017).
For some of these results: Expression values are those of the mRNA of the gene that encodes the peptide; a gene is named only where it was looked up.

Experiments:
HLA-A*24 = assay: Identification and relative LC-MS quantitation of HLA-A*24-presented tumor-associated peptides on tissue samples (presentation profiles, Tables 14A, 14B, 16, FIG. 1); set-up: species or system human; key to Presentation score GC / Presentation score NSCLC / Presentation score PCA / Presentation score GB / Presentation score HCC / Presentation score RCC: specifically presented on tumors (++++); very highly over-presented on tumors compared to a panel of normal tissues (+++); highly over-presented on tumors compared to a panel of normal tissues (++); over-presented on tumors compared to a panel of normal tissues (+)
source genes (mRNA) [1] = assay: Gene and exon expression of source genes, TCGA tumor samples compared with normal tissue samples (Lonsdale, 2013) (Table 17); set-up: species or system human; details: for Over-expression category of source gene (target coverage), COAD: COAD = Colon and rectal adenocarcinoma (N = 462); for Over-expression category of source gene (target coverage), ESCA: ESCA = Esophageal cancer (N = 185); for Over-expression category of source gene (target coverage), READ: READ = Colon and rectal adenocarcinoma (N = 167); for Over-expression category of source gene (target coverage), STAD: STAD = Stomach adenocarcinoma (N = 415)
source genes (mRNA) [2] = assay: Expression profiling of source genes by in-house RNASeq of tumor and normal tissues (Table 18, FIG. 2); set-up: species or system human; key: very highly over-expressed in tumors compared to a panel of normal tissues (+++); highly over-expressed in tumors compared to a panel of normal tissues (++); over-expressed in tumors compared to a panel of normal tissues (+); details: source gene of peptide; for Expression score OSCAR: esophageal cancer incl. gastric-esophageal junction (N = 11) vs panel of normal tissues; for Expression score OC: ovarian cancer (N = 12) vs panel of normal tissues; for Expression score UBC: urinary bladder cancer (N = 10) vs panel of normal tissues

## 170: peptide found in EMC1 (gene looked up) (VYEDQVGKF; listed as Homo sapiens) [compound 170]
HLA-A*24; HLA-A*24 peptides, glioblastoma (N = 18) vs panel of normal tissues (N = 70)
  Presentation score GB: ++++
HLA-A*24; HLA-A*24 peptides, non-small cell lung cancer (N = 91) vs panel of normal tissues (N = 70)
  Presentation score NSCLC: ++++
HLA-A*24; Table 14A, HLA-A*24-binding tumor-associated peptides, cancer entities on which the peptide was found presented
  Peptide Presentation on cancer entities: GB, NSCLC
Source genes (mRNA) [1]; BLCA = Bladder urothelial carcinoma (N = 408), same cutoff
  Over-expression category of source gene (target coverage), BLCA: A (>=50% of tumors above the cutoff)
Source genes (mRNA) [1]; BRCA = Breast cancer (N = 1104), tumors more than 2-fold above highest 75% percentile of normal tissues
  Over-expression category of source gene (target coverage), BRCA: A (>=50% of tumors above the cutoff)
Source genes (mRNA) [1]; CHOL = Cholangiocarcinoma (N = 36), same cutoff
  Over-expression category of source gene (target coverage), CHOL: B (>= 20% of tumors above the cutoff, but <50%)
Source genes (mRNA) [1]; same cutoff
  Over-expression category of source gene (target coverage), COAD: A (>=50% of tumors above the cutoff)
  Over-expression category of source gene (target coverage), ESCA: A (>=50% of tumors above the cutoff)
  Over-expression category of source gene (target coverage), READ: A (>=50% of tumors above the cutoff)
  Over-expression category of source gene (target coverage), STAD: A (>=50% of tumors above the cutoff)
Source genes (mRNA) [1]; DLBC = Lymphoid neoplasm diffuse large B-cell lymphoma (N = 48), same cutoff
  Over-expression category of source gene (target coverage), DLBC: B (>= 20% of tumors above the cutoff, but <50%)
Source genes (mRNA) [1]; GBM = Glioblastoma multiforme (N = 169), same cutoff
  Over-expression category of source gene (target coverage), GBM: A (>=50% of tumors above the cutoff)
Source genes (mRNA) [1]; KICH = Kidney chromophobe (N = 66), same cutoff
  Over-expression category of source gene (target coverage), KICH: C (>=5% of tumors above the cutoff, but <20%)
Source genes (mRNA) [1]; KIRC = Clear cell kidney carcinoma (N = 534), same cutoff
  Over-expression category of source gene (target coverage), KIRC: A (>=50% of tumors above the cutoff)
Source genes (mRNA) [1]; KIRP = Papillary kidney carcinoma (N = 291), same cutoff
  Over-expression category of source gene (target coverage), KIRP: B (>= 20% of tumors above the cutoff, but <50%)
Source genes (mRNA) [1]; LAML = Acute Myeloid Leukemia (N = 173), same cutoff
  Over-expression category of source gene (target coverage), LAML: A (>=50% of tumors above the cutoff)
Source genes (mRNA) [1]; LGG = Lower grade glioma (N = 534), same cutoff
  Over-expression category of source gene (target coverage), LGG: A (>=50% of tumors above the cutoff)
Source genes (mRNA) [1]; LIHC = Liver hepatocellular carcinoma (N = 374), same cutoff
  Over-expression category of source gene (target coverage), LIHC: B (>= 20% of tumors above the cutoff, but <50%)
Source genes (mRNA) [1]; LUAD = Lung adenocarcinoma (N = 517), same cutoff
  Over-expression category of source gene (target coverage), LUAD: A (>=50% of tumors above the cutoff)
Source genes (mRNA) [1]; LUSC = Lung squamous cell carcinoma (N = 503), same cutoff
  Over-expression category of source gene (target coverage), LUSC: A (>=50% of tumors above the cutoff)
Source genes (mRNA) [1]; OV = Ovarian serous cystadenocarcinoma (N = 309), same cutoff
  Over-expression category of source gene (target coverage), OV: A (>=50% of tumors above the cutoff)
Source genes (mRNA) [1]; PAAD = Pancreatic ductal adenocarcinoma (N = 179), same cutoff
  Over-expression category of source gene (target coverage), PAAD: A (>=50% of tumors above the cutoff)
Source genes (mRNA) [1]; PRAD = Prostate adenocarcinoma (N = 498), same cutoff
  Over-expression category of source gene (target coverage), PRAD: A (>=50% of tumors above the cutoff)
Source genes (mRNA) [1]; SKCM = Skin cutaneous melanoma (N = 473), same cutoff
  Over-expression category of source gene (target coverage), SKCM: A (>=50% of tumors above the cutoff)
Source genes (mRNA) [1]; UCEC = Uterine corpus endometrial carcinoma (N = 546), same cutoff
  Over-expression category of source gene (target coverage), UCEC: A (>=50% of tumors above the cutoff)
Source genes (mRNA) [2]
  Expression score OSCAR: +
  Expression score OC: +
  Expression score UBC: +
Source genes (mRNA) [2]; glioblastoma (N = 24) vs panel of normal tissues
  Expression score GB: +
Source genes (mRNA) [2]; non-small cell lung cancer (N = 11) vs panel of normal tissues
  Expression score NSCLC: +

## 177: peptide found in CYP2W1 (gene looked up) (VYPWLGALL; listed as Homo sapiens) [compound 177]
HLA-A*24; HLA-A*24 peptides, gastric cancer (N = 44) vs panel of normal tissues (N = 70)
  Presentation score GC: ++++
Source genes (mRNA) [1]; same cutoff
  Over-expression category of source gene (target coverage), COAD: B (>= 20% of tumors above the cutoff, but <50%)
  Over-expression category of source gene (target coverage), ESCA: C (>=5% of tumors above the cutoff, but <20%)
  Over-expression category of source gene (target coverage), READ: B (>= 20% of tumors above the cutoff, but <50%)
  Over-expression category of source gene (target coverage), STAD: C (>=5% of tumors above the cutoff, but <20%)
Source genes (mRNA) [2]; colorectal cancer (N = 20) vs panel of normal tissues
  Expression score CRC: +++
Source genes (mRNA) [2]
  Expression score OSCAR: ++
  Expression score OC: +++
  Expression score UBC: +
Source genes (mRNA) [2]; gallbladder adenocarcinoma and cholangiocarcinoma (N = 3) vs panel of normal tissues
  Expression score GBC_CCC: +++
Source genes (mRNA) [2]; gastric cancer (N = 11) vs panel of normal tissues
  Expression score GC: +++
Source genes (mRNA) [2]; pancreatic cancer (N = 26) vs panel of normal tissues
  Expression score PC: +
Source genes (mRNA) [2]; prostate cancer and benign prostate hyperplasia (N = 5) vs panel of normal tissues
  Expression score PCA: +
